Values from PubChem BioAssay AID652243 (Drosophila RNAi Screening Center, 2013)

Purpose: 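Fly genes required for human androgen receptor driven transcription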 (primary screen)
Cell system: Drosophila S2R+ cells
Knock-down reagent: long dsRNA against Drosophila genes
Duration: 72 h (48 h, then 24 h hormone)
Treatment: synthetic androgen R1881 at 10 nM for 24 h
Measurement: 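Per-well raw luminescence of the androgen-driven firefly reporter and of the Renilla control, two replicates each, without normalisation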
Reading the numbers: firefly reporter light: higher = more light from androgen-responsive reporter; Renilla control light: higher = more constitutive control signal (cell number, transfection)
Rule for the call: 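Across duplicate plates, a knock-down whose log firefly/Renilla ratio shifted a set fold down or up from the GFP/LacZ control mean was a hit; the downward cut appears as both 1.5 and 3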
Calls: active = hit: reporter lowered or raised; inactive = no hit
The deposit covers about 24,000 reagents; this is an unselected part of those that have a named target and a result. Over the whole deposit, 246 (1%) got an active call. 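Plates not normalised; calls are printed but the firefly/Renilla ratio behind them is not deposited; fold cut for lowering reported inconsistently.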 The raw values are shown without normalisation. The numbers tell different reagents against one gene apart. A plus sign joins genes that one reagent is predicted to hit. The record does not give: the amount of reagent.

{"Target gene": "Trpm (GeneID 36694)", "dsRNA no.": 1, "firefly reporter light, replicate 1": 9.62e5, "firefly reporter light, replicate 2": 1.09e6, "Renilla control light, replicate 1": 2.36e6, "Renilla control light, replicate 2": 2.21e6, "Call": "inactive"}
{"Target gene": "Trpm (GeneID 36694)", "dsRNA no.": 2, "firefly reporter light, replicate 1": 6.18e5, "firefly reporter light, replicate 2": 7.33e5, "Renilla control light, replicate 1": 2.05e6, "Renilla control light, replicate 2": 1.93e6, "Call": "inactive"}
{"Target gene": "Trpm (GeneID 36694)", "dsRNA no.": 3, "firefly reporter light, replicate 1": 1.90e5, "firefly reporter light, replicate 2": 2.50e5, "Renilla control light, replicate 1": 3.36e5, "Renilla control light, replicate 2": 4.56e5, "Call": "inactive"}
{"Target gene": "Trpm (GeneID 36694)", "dsRNA no.": 4, "firefly reporter light, replicate 1": 8.38e5, "firefly reporter light, replicate 2": 4.41e5, "Renilla control light, replicate 1": 2.08e6, "Renilla control light, replicate 2": 1.38e6, "Call": "inactive"}
{"Target gene": "CG14086 (GeneID 40100)", "dsRNA no.": 1, "firefly reporter light, replicate 1": 2.88e5, "firefly reporter light, replicate 2": 2.80e5, "Renilla control light, replicate 1": 2.00e6, "Renilla control light, replicate 2": 2.92e6, "Call": "inactive"}
{"Target gene": "CG3376 (GeneID 37884)", "dsRNA no.": 1, "firefly reporter light, replicate 1": 7.27e5, "firefly reporter light, replicate 2": 7.89e5, "Renilla control light, replicate 1": 5.57e5, "Renilla control light, replicate 2": 8.83e5, "Call": "inactive"}
{"Target gene": "CG3376 (GeneID 37884)", "dsRNA no.": 2, "firefly reporter light, replicate 1": 47783, "firefly reporter light, replicate 2": 59095, "Renilla control light, replicate 1": 67276, "Renilla control light, replicate 2": 72878, "Call": "inactive"}
{"Target gene": "CR43670 + CR43671 + CR43669", "dsRNA no.": 1, "firefly reporter light, replicate 1": 1.48e5, "firefly reporter light, replicate 2": 1.96e5, "Renilla control light, replicate 1": 4.87e5, "Renilla control light, replicate 2": 7.45e5, "Call": "inactive"}
{"Target gene": "CR43670 + CR43671 + CR43669", "dsRNA no.": 2, "firefly reporter light, replicate 1": 1.77e5, "firefly reporter light, replicate 2": 1.67e5, "Renilla control light, replicate 1": 5.84e5, "Renilla control light, replicate 2": 8.19e5, "Call": "inactive"}
{"Target gene": "RhoL (GeneID 41136)", "dsRNA no.": 1, "firefly reporter light, replicate 1": 67594, "firefly reporter light, replicate 2": 69532, "Renilla control light, replicate 1": 5.26e5, "Renilla control light, replicate 2": 3.84e5, "Call": "inactive"}
{"Target gene": "RhoL (GeneID 41136)", "dsRNA no.": 2, "firefly reporter light, replicate 1": 9.86e5, "firefly reporter light, replicate 2": 3.07e5, "Renilla control light, replicate 1": 1.93e6, "Renilla control light, replicate 2": 5.13e5, "Call": "inactive"}
{"Target gene": "RhoL (GeneID 41136)", "dsRNA no.": 3, "firefly reporter light, replicate 1": 8.05e5, "firefly reporter light, replicate 2": 6.57e5, "Renilla control light, replicate 1": 1.44e6, "Renilla control light, replicate 2": 1.23e6, "Call": "inactive"}
{"Target gene": "CG12948 (GeneID 41187)", "dsRNA no.": 1, "firefly reporter light, replicate 1": 1.07e5, "firefly reporter light, replicate 2": 1.02e5, "Renilla control light, replicate 1": 1.54e6, "Renilla control light, replicate 2": 1.63e6, "Call": "inactive"}
{"Target gene": "CG12948 (GeneID 41187)", "dsRNA no.": 2, "firefly reporter light, replicate 1": 6.88e5, "firefly reporter light, replicate 2": 2.84e5, "Renilla control light, replicate 1": 2.05e6, "Renilla control light, replicate 2": 1.14e6, "Call": "inactive"}
{"Target gene": "ACXD (GeneID 38284)", "dsRNA no.": 1, "firefly reporter light, replicate 1": 40559, "firefly reporter light, replicate 2": 48304, "Renilla control light, replicate 1": 8.67e5, "Renilla control light, replicate 2": 8.62e5, "Call": "inactive"}
{"Target gene": "ACXD (GeneID 38284)", "dsRNA no.": 2, "firefly reporter light, replicate 1": 5.93e5, "firefly reporter light, replicate 2": 5.73e5, "Renilla control light, replicate 1": 7.55e5, "Renilla control light, replicate 2": 8.99e5, "Call": "inactive"}
{"Target gene": "CG4945 (GeneID 36850)", "dsRNA no.": 1, "firefly reporter light, replicate 1": 1.18e6, "firefly reporter light, replicate 2": 1.06e6, "Renilla control light, replicate 1": 2.13e6, "Renilla control light, replicate 2": 1.55e6, "Call": "inactive"}
{"Target gene": "CG4945 (GeneID 36850)", "dsRNA no.": 2, "firefly reporter light, replicate 1": 3.11e5, "firefly reporter light, replicate 2": 4.14e5, "Renilla control light, replicate 1": 7.88e5, "Renilla control light, replicate 2": 7.88e5, "Call": "inactive"}
{"Target gene": "CG4945 (GeneID 36850)", "dsRNA no.": 3, "Call": "inactive"}
{"Target gene": "png (GeneID 31084)", "dsRNA no.": 1, "firefly reporter light, replicate 1": 2.22e5, "firefly reporter light, replicate 2": 2.47e5, "Renilla control light, replicate 1": 4.48e6, "Renilla control light, replicate 2": 3.82e6, "Call": "inactive"}
{"Target gene": "png (GeneID 31084)", "dsRNA no.": 2, "firefly reporter light, replicate 1": 4.08e5, "firefly reporter light, replicate 2": 3.55e5, "Renilla control light, replicate 1": 7.54e5, "Renilla control light, replicate 2": 7.46e5, "Call": "inactive"}

As entered above:
Value for Trpm (GeneID 36694) #1 in “firefly reporter light, replicate 2”: 1.09e6
Under “firefly reporter light, replicate 2”, CG3376 (GeneID 37884) #1 has 7.89e5
Result for RhoL (GeneID 41136) #3 in “Renilla control light, replicate 2”: 1.23e6
